Values of other authors as cited in PMC3121697, “Predicting Binding to P-Glycoprotein by Flexible Receptor Docking” (PLoS Computational Biology, 2011).
Read-outs that look alike come from different tables or passages of the source.

Test system: P-gp
Conditions: cited from earlier work
[1] = Table S4, Doan et al. dataset, both assays positive or both negative

SMILES	P-gp interaction [1]	P-gp interaction (not told)
CCN(CC)CC(=O)Nc1c(C)cccc1C [Lidocaine]	N	
CC(C)NC[C@H](O)COc1ccc(CC(N)=O)cc1 [(S)-Atenolol]	N	
O=C1CN=C(c2ccccc2)c2cc(Cl)ccc2N1 [Nordazepam]		N
CC(C)NC[C@@H](O)COc1ccc(CC(N)=O)cc1 [(R)-Atenolol]	N	
